Experimental data: PubChem BioAssay AID1053208 (Peter MacCallum Cancer Centre, 2014)

Assay: 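Synthetic lethal interactions between gene loss and doxorubicin in osteosarcoma cells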 (primary screen)
System: mouse osteosarcoma cells, early-passage culture from an engineered mouse model of fibroblastic bone tumour
Reagent: siRNA pool against mouse genes, 40 nM
Timing: about 120 h (48 h before drug, then 72 h with drug)
Challenge: doxorubicin 100 nM for 72 h, roughly 30-40% inhibitory dose
Measured: 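Viability read as ATP luminescence after 72 h of 100 nM doxorubicin or none, duplicate wells averaged, scaled to non-targeting siRNA, then expressed as robust z-scores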
Reading the numbers: viability z-score with doxorubicin: higher = more viable cells under doxorubicin; viability z-score without drug: higher = more viable cells with knock-down alone
Hit rule: 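Called active if knock-down leaves viability unchanged without drug (z within -2 to 2) but lowers it with doxorubicin (z at or under -2)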
In all, the deposit lists about 17,000 reagents; this is a part drawn at random. 788 of them (4.7%) were called active. 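Calls rest on z-score classes alone; an extra cut-off of viability at most 70% of control was not applied to them.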 A number with no mark means an inactive call. The numbers tell different reagents against one gene apart. Further read-outs or replicates are left out here. No sequences are given here.

Pfn3 — combined z-score class = low cell count with and without drug; viability z-score with doxorubicin = -2.7; viability z-score without drug = -2.19
Mrgprb5 — combined z-score class = no change with or without drug; viability z-score with doxorubicin = -0.79; viability z-score without drug = -1.35
Mmp24 — combined z-score class = no change with or without drug; viability z-score with doxorubicin = 0.34; viability z-score without drug = 0.67
Ogt — combined z-score class = no change with or without drug; viability z-score with doxorubicin = 1.46; viability z-score without drug = -0.51
Slc17a4 — combined z-score class = no change with or without drug; viability z-score with doxorubicin = 0.11; viability z-score without drug = -1.69
Panx3 — combined z-score class = no change with or without drug; viability z-score with doxorubicin = 0.56; viability z-score without drug = 0.34
Psmb1 — combined z-score class = low cell count with and without drug; viability z-score with doxorubicin = -7.31; viability z-score without drug = -8.77
Snx10 — combined z-score class = no change with or without drug; viability z-score with doxorubicin = -1.69; viability z-score without drug = -0.51
Yipf3 — combined z-score class = high cell count without drug only; viability z-score with doxorubicin = 0.67; viability z-score without drug = 2.02
Myo5a — combined z-score class = no change with or without drug; viability z-score with doxorubicin = 0.67; viability z-score without drug = -0.17
Zfp185 — combined z-score class = no change with or without drug; viability z-score with doxorubicin = -0.22; viability z-score without drug = -0.17
Yipf6 — combined z-score class = no change with or without drug; viability z-score with doxorubicin = 0; viability z-score without drug = 0.51
Cited1 — combined z-score class = no change with or without drug; viability z-score with doxorubicin = -1.12; viability z-score without drug = -1.01
Rpl39 — combined z-score class = low cell count with and without drug; viability z-score with doxorubicin = -3.37; viability z-score without drug = -4.22
Neil1 — combined z-score class = no change with or without drug; viability z-score with doxorubicin = 1.57; viability z-score without drug = 0.51
Shc1 — combined z-score class = high cell count with doxorubicin only; viability z-score with doxorubicin = 2.36; viability z-score without drug = 0.17
Mrtfb #1 — combined z-score class = no change with or without drug; viability z-score with doxorubicin = -0.45; viability z-score without drug = -1.52
Mrtfb #2 — combined z-score class = no change with or without drug; viability z-score with doxorubicin = 1.12; viability z-score without drug = -1.52
Tsen15 — combined z-score class = no change with or without drug; viability z-score with doxorubicin = -0.45; viability z-score without drug = -0.17
C030006K11Rik — combined z-score class = no change with or without drug; viability z-score with doxorubicin = -0.56; viability z-score without drug = -0.34
Pphln1-ps1 — combined z-score class = no change with or without drug; viability z-score with doxorubicin = 1.46; viability z-score without drug = -0.17
Hp1bp3 — combined z-score class = no change with or without drug; viability z-score with doxorubicin = 0.67; viability z-score without drug = 0.67

3 successive reagents from above, for reference:
Shc1 — combined z-score class = high cell count with doxorubicin only; viability z-score with doxorubicin = 2.36; viability z-score without drug = 0.17
Mrtfb #1 — combined z-score class = no change with or without drug; viability z-score with doxorubicin = -0.45; viability z-score without drug = -1.52
Mrtfb #2 — combined z-score class = no change with or without drug; viability z-score with doxorubicin = 1.12; viability z-score without drug = -1.52

Continued.
Pdap1 — combined z-score class = no change with or without drug; viability z-score with doxorubicin = -1.35; viability z-score without drug = -0.84
Utp4 — combined z-score class = low cell count without drug only; viability z-score with doxorubicin = -1.69; viability z-score without drug = -2.53
Efna5 — combined z-score class = no change with or without drug; viability z-score with doxorubicin = -1.12; viability z-score without drug = 0.17
Gtf2a1l — combined z-score class = no change with or without drug; viability z-score with doxorubicin = 0.56; viability z-score without drug = 0
C530043K16Rik — combined z-score class = no change with or without drug; viability z-score with doxorubicin = -0.22; viability z-score without drug = 0.34
Aldh3a1 — combined z-score class = no change with or without drug; viability z-score with doxorubicin = 0; viability z-score without drug = -0.84
Ifnlr1 — combined z-score class = no change with or without drug; viability z-score with doxorubicin = -0.45; viability z-score without drug = -0.67
Icosl — combined z-score class = no change with or without drug; viability z-score with doxorubicin = -1.91; viability z-score without drug = -0.17
Kcnq5 — combined z-score class = no change with or without drug; viability z-score with doxorubicin = -1.35; viability z-score without drug = -0.84
Slc35e3 — combined z-score class = no change with or without drug; viability z-score with doxorubicin = 0.67; viability z-score without drug = 0.34
Map3k5 — combined z-score class = no change with or without drug; viability z-score with doxorubicin = 0.9; viability z-score without drug = -0.51
Tnfsf14 — combined z-score class = no change with or without drug; viability z-score with doxorubicin = -0.45; viability z-score without drug = -0.51
Fgf3 — combined z-score class = no change with or without drug; viability z-score with doxorubicin = -0.34; viability z-score without drug = 1.18
Sv2b — combined z-score class = no change with or without drug; viability z-score with doxorubicin = 0; viability z-score without drug = -0.34
